Results: the supplement of paper PMC10849652
The list shows a part of the results.

By UniProt entry, the sequences of proteins in these tests, tags left out. Where a name states a change or a piece, a line headed by the entry shows the natural chain unless it says otherwise.
UniProt Q96SB8: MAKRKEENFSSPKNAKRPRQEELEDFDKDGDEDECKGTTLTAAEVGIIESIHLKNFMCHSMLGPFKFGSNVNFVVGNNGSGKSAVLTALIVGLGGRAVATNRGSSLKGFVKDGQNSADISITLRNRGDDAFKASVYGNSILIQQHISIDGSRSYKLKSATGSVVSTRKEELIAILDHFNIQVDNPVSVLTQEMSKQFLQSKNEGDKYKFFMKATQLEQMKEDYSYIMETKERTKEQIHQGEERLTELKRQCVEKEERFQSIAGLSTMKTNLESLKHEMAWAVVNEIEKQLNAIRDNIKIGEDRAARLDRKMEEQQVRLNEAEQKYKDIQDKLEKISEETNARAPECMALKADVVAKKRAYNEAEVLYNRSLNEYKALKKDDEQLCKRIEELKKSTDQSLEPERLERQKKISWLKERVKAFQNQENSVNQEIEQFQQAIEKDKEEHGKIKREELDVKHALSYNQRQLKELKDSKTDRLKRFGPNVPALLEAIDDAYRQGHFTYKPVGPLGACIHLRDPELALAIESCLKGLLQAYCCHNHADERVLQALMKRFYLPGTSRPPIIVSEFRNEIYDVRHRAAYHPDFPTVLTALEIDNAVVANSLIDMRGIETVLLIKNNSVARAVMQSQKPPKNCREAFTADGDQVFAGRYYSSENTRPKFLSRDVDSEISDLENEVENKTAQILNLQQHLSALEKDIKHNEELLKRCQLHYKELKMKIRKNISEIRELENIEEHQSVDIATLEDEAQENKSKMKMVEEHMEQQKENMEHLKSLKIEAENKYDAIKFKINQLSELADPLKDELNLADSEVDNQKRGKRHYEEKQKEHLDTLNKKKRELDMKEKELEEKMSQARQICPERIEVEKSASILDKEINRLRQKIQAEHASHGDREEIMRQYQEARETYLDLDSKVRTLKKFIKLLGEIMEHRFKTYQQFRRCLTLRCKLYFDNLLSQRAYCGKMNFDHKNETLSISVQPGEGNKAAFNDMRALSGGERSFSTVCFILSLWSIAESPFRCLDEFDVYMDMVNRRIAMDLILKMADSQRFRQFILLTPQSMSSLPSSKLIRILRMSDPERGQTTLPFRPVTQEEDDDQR
UniProt Q8IYB5: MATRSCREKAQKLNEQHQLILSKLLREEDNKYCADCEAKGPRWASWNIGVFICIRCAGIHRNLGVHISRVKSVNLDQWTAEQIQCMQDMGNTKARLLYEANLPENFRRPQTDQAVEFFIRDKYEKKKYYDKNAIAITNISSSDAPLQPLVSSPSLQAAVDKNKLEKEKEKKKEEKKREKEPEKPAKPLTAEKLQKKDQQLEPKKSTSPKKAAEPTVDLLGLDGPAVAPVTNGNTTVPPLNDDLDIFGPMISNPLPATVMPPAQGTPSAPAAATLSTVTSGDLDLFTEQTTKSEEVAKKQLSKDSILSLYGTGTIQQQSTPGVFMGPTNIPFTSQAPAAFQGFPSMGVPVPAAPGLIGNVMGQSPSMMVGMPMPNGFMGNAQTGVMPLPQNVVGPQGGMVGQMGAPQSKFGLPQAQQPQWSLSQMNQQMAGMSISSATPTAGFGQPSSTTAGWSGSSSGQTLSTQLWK
UniProt O75940: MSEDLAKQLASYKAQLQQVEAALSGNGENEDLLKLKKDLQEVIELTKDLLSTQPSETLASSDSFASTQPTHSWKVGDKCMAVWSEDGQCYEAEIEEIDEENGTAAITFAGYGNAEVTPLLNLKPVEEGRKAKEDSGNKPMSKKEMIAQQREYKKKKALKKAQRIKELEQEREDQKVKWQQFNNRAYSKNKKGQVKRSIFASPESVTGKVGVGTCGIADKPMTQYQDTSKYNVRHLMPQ
UniProt Q92540: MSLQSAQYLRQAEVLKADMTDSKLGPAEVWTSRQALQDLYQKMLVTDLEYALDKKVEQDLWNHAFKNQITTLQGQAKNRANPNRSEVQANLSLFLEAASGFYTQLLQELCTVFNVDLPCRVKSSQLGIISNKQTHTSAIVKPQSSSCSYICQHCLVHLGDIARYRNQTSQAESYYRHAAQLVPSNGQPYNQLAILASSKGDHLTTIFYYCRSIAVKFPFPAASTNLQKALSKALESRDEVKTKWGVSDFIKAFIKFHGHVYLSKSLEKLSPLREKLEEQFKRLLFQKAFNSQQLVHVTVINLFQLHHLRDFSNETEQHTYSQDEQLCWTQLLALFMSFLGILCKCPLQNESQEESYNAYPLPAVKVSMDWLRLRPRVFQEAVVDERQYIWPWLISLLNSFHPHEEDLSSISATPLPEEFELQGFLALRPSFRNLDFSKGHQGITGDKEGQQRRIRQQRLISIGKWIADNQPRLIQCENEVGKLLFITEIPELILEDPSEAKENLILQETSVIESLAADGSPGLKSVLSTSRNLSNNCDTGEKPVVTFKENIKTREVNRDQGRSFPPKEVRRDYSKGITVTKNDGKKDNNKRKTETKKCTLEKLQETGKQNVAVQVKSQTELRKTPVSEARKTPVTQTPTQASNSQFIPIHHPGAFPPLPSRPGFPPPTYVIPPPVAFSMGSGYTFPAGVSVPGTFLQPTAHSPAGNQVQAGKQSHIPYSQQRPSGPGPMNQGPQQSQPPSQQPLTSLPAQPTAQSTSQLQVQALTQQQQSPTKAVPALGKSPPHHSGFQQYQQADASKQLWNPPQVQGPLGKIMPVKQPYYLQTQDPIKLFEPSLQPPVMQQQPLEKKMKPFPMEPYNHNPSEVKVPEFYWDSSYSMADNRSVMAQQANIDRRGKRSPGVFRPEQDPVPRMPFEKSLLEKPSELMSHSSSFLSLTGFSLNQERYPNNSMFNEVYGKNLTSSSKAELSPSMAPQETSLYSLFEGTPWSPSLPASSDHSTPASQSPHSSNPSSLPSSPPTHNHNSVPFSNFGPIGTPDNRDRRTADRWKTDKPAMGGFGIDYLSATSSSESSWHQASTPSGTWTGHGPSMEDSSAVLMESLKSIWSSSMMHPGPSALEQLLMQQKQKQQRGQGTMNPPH
UniProt O14508, whole entry, looked up: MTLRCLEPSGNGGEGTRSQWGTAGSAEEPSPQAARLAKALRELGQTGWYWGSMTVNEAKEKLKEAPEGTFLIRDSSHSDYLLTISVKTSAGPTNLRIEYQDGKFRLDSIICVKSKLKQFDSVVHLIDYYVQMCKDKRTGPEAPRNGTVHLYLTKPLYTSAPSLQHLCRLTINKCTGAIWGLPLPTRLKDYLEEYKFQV
UniProt P09234, whole entry, looked up: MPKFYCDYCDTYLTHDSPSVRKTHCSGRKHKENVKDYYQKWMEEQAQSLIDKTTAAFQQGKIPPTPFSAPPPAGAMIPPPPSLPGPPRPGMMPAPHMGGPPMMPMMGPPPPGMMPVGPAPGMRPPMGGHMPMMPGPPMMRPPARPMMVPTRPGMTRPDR
UniProt P62314, whole entry, looked up: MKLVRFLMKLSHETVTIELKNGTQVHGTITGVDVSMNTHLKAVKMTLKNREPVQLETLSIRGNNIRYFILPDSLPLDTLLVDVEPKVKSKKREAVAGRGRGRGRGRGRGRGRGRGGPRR
UniProt Q8NDV3: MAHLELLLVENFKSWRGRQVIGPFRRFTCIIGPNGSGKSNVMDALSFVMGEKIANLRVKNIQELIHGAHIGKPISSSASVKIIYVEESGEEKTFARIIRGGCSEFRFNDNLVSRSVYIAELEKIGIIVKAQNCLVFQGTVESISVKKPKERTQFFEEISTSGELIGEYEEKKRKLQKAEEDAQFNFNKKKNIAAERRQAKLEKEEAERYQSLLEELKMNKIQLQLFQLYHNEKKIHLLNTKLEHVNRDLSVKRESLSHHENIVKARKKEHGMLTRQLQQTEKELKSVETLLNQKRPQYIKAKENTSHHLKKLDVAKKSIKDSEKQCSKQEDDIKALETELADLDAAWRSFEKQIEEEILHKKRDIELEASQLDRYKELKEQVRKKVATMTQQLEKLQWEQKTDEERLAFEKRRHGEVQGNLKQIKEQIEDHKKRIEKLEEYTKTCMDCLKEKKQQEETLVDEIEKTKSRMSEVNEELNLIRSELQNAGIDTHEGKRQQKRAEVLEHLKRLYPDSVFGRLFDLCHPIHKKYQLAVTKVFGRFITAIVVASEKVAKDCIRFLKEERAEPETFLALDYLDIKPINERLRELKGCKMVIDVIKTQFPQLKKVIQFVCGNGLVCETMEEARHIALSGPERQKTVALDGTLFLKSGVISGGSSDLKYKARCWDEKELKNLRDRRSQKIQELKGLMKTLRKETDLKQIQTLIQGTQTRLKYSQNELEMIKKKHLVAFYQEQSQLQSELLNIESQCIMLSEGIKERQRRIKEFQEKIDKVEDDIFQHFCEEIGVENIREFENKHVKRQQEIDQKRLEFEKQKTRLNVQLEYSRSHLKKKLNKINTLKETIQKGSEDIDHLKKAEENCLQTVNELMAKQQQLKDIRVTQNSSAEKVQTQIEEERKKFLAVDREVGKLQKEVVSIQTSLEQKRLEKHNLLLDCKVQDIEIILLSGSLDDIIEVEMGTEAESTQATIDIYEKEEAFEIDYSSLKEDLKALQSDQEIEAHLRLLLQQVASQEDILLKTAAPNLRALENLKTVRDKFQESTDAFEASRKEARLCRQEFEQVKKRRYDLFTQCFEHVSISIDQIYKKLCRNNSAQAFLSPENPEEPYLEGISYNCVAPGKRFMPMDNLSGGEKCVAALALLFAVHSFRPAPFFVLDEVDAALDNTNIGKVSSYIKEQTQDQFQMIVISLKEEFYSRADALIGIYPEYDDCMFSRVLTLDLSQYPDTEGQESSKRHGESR
UniProt P09012, whole entry, looked up: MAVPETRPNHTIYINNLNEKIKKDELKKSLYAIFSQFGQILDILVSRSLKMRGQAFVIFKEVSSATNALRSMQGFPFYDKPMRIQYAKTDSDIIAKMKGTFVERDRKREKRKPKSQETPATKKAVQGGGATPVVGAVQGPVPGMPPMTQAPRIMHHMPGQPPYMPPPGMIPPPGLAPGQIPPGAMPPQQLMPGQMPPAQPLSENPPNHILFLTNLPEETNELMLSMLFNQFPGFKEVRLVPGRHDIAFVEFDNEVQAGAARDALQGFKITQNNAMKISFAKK
UniProt O95347, whole entry, looked up: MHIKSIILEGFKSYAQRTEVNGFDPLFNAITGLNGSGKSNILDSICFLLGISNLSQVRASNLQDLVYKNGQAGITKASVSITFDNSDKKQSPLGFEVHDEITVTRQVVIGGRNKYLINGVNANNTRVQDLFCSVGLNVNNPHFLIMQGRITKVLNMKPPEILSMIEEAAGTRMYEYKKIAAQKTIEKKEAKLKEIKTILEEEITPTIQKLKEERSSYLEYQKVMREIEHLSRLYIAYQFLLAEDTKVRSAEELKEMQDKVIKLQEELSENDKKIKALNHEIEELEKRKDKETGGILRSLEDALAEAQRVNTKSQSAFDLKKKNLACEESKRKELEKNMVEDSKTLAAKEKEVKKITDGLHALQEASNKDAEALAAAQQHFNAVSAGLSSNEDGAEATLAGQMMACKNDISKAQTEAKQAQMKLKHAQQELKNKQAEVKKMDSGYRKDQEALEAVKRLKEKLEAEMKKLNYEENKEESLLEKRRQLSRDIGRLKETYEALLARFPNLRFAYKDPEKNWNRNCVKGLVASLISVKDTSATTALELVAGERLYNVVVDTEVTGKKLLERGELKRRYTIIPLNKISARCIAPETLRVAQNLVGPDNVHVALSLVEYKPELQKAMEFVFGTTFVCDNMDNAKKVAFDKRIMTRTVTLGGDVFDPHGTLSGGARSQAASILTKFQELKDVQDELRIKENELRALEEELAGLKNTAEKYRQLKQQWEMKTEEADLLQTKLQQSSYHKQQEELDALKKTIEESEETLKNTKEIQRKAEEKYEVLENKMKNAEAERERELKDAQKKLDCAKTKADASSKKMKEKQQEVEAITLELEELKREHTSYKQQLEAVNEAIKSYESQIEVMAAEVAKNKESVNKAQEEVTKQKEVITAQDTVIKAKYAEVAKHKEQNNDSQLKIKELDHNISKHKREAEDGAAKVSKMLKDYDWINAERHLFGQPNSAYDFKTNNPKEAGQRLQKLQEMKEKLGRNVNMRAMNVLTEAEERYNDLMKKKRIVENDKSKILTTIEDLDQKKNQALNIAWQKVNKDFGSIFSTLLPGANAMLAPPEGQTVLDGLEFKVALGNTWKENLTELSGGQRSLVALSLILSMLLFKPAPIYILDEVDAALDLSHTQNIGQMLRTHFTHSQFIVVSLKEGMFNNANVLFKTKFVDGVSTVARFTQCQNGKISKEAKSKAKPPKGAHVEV
UniProt O76070, whole entry, looked up: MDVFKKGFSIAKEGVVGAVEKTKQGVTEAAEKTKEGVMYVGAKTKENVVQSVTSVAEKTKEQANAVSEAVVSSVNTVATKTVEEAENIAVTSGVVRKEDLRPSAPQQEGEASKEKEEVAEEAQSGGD

Assays:
Assay in all cases: log2 fold change, soluble protein after heating vs DMSO (PISA); higher = thermal stabilisation; K562 cells, 10 uM, 30 min; active = over 0.2 and 3.5 SD of the protein, either way, in both replicates (recomputed)
[1] = compound: CS(=O)(=O)c1ccc(-c2cnc(N)c(C(=O)Nc3ccccc3)n2)cc1
Summary of the method: (§1)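 K562 cells at 2×10^6 cells/mL were exposed to 10 μM compound for 30 min, then aliquots were heated for 3 min across 48°C-58°C, pooled, and extracted in PBS containing 0.5% NP-40 at 4°C. The supernatant after 21,000xg for 90 min was taken as soluble protein and measured by TMTpro 16plex LC-MS/MS with channel sums equalised. Thermal stability is reported relative to control samples, with values from duplicates. Fold changes are given on a log2 scale.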

crizotinib = compound: C[C@@H](Oc1cc(-c2cnn(C3CCNCC3)c2)cnc1N)c1c(Cl)ccc(F)c1Cl [crizotinib]
Summary of the method: as §1

[2] = compound: C[C@@H]1COCCN1C2=NC(=NC(=C2)C3(CC3)S(=O)(=O)C)C4=C5C=CNC5=CC=C4
Summary of the method: as §1

[3] = compound: C[C@H](C1=CC=C(C=C1)C(=O)NC2=C3C=CNC3=NC=C2)N
Summary of the method: as §1

duvelisib = compound: C[C@H](Nc1ncnc2nc[nH]c12)c1cc2cccc(Cl)c2c(=O)n1-c1ccccc1 [duvelisib]
Summary of the method: as §1

gandotinib = compound: Cc1cc(Nc2cc(CN3CCOCC3)c3nc(C)c(Cc4ccc(Cl)cc4F)n3n2)n[nH]1 [gandotinib]
Summary of the method: as §1

tozasertib = compound: Cc1cc(Nc2cc(N3CCN(C)CC3)nc(Sc3ccc(NC(=O)C4CC4)cc3)n2)n[nH]1 [tozasertib]
Summary of the method: as §1

[4] = compound: Cc1cc(SCc2sc(-c3ccc(C(F)(F)F)cc3)nc2C)ccc1OCC(=O)O
Summary of the method: as §1

doramapimod = compound: Cc1ccc(-n2nc(C(C)(C)C)cc2NC(=O)Nc2ccc(OCCN3CCOCC3)c3ccccc23)cc1 [doramapimod]
Summary of the method: as §1

ispinesib = compound: Cc1ccc(C(=O)N(CCCN)[C@@H](c2nc3cc(Cl)ccc3c(=O)n2Cc2ccccc2)C(C)C)cc1 [ispinesib]
Summary of the method: as §1

bafetinib = compound: Cc1ccc(NC(=O)c2ccc(CN3CC[C@H](N(C)C)C3)c(C(F)(F)F)c2)cc1Nc1nccc(-c2cncnc2)n1 [bafetinib]
Summary of the method: as §1

[5] = compound: Cc1cccc(CC(=O)N2CCc3c2ccc(-c2cn(C)c4ncnc(N)c24)c3F)n1
Summary of the method: as §1

nilotinib = compound: Cc1cn(-c2cc(NC(=O)c3ccc(C)c(Nc4nccc(-c5cccnc5)n4)c3)cc(C(F)(F)F)c2)cn1 [nilotinib]
Summary of the method: as §1

[6] = compound: Cc1nc(Nc2n[nH]c3c2CN(C(=O)N[C@H](CN(C)C)c2ccccc2)C3(C)C)c2sccc2n1
Summary of the method: as §1

dasatinib = compound: Cc1nc(Nc2ncc(C(=O)Nc3c(C)cccc3Cl)s2)cc(N2CCN(CCO)CC2)n1 [dasatinib]
Summary of the method: as §1

[7] = compound: Cc1ncc(-c2ccnc(Nc3ccc(S(C)(=O)=O)cc3)n2)n1C(C)C
Summary of the method: as §1

[8] = compound: Cn1cc(-c2ccc3c(c2)CCN3C(=O)Cc2cccc(C(F)(F)F)c2)c2c(N)ncnc21
Summary of the method: as §1

[9] = compound: Cn1cc(-c2ccc3nnc(C(F)(F)c4ccc5ncccc5c4)n3n2)cn1
Summary of the method: as §1

tipifarnib = compound: Cn1cncc1[C@@](N)(c1ccc(Cl)cc1)c1ccc2c(c1)c(-c1cccc(Cl)c1)cc(=O)n2C [tipifarnib]
Summary of the method: as §1

mubritinib = compound: FC(F)(F)c1ccc(/C=C/c2nc(COc3ccc(CCCCn4ccnn4)cc3)co2)cc1 [mubritinib]
Summary of the method: as §1

Measured: log2 fold change

SMC6 isoform 2 (UniProt Q96SB8)
inactive: [1] 0.018 | crizotinib 0.113 | [2] 0.065 | [3] -0.009 | duvelisib 0.033 | gandotinib -0.036 | tozasertib 0.009 | [4] 0.015 | doramapimod -0.032 | ispinesib 0.03 | bafetinib -0.028 | [5] 0.007 | nilotinib 0.04 | [6] -0.115 | dasatinib 0.016 | [7] 0.022 | [8] 0.041 | [9] -0.027 | tipifarnib 0.036 | mubritinib 0.049

SMAP1 isoform 2 (UniProt Q8IYB5)
inactive: [1] -0.009 | crizotinib 0.017 | [2] -0.025 | [3] 0.035 | duvelisib 0.033 | gandotinib 0.01 | tozasertib -0.003 | [4] 0.051 | doramapimod 0.008 | ispinesib 0.059 | bafetinib 0.026 | [5] 0.034 | nilotinib 0.034 | [6] -0.111 | dasatinib 0 | [7] 0.019 | [8] 0.006 | [9] -0.014 | tipifarnib -0.084 | mubritinib 0.043

SMC1A (UniProt Q14683)
inactive: [1] 0.017 | crizotinib 0.051 | [2] 0.039 | [3] -0.105 | duvelisib 0.049 | gandotinib 0.001 | tozasertib 0.007 | [4] -0.003 | doramapimod -0.02 | ispinesib 0.054 | bafetinib -0.012 | [5] -0.007 | nilotinib 0.027 | [6] -0.069 | dasatinib -0.028 | [7] -0.037 | [8] 0.007 | [9] -0.002 | tipifarnib 0.001 | mubritinib 0.032

SMNDC1 (UniProt O75940)
inactive: [1] 0.006 | crizotinib 0.041 | [2] 0.007 | [3] 0.053 | duvelisib 0.029 | gandotinib -0.01 | tozasertib 0.018 | [4] -0.013 | doramapimod -0.018 | ispinesib 0.067 | bafetinib -0.013 | [5] -0.062 | nilotinib 0.051 | [6] 0.15 | dasatinib 0.095 | [7] 0.16 | [8] -0.048 | [9] -0.069 | tipifarnib 0.046 | mubritinib -0.064

SMG7 isoform 4 (UniProt Q92540)
inactive: [1] -0.073 | crizotinib -0.18 | [2] 0.148 | [3] 0.145 | duvelisib -0.024 | gandotinib -0.144 | tozasertib -0.038 | [4] 0.061 | doramapimod 0.199 | ispinesib -0.217 | bafetinib -0.116 | [5] 0.087 | nilotinib -0.005 | [6] -0.008 | dasatinib -0.03 | [7] -0.036 | [8] -0.164 | [9] -0.117 | tipifarnib 0.096

SOCS2 (UniProt O14508)
inactive: [1] 0.083 | crizotinib 0.032 | [2] 0.06 | [3] 0.026 | duvelisib 0.132 | gandotinib 0.044 | tozasertib 0.005 | [4] 0.022 | doramapimod 0.142 | ispinesib 0.065 | bafetinib -0.098 | [5] -0.072 | nilotinib 0.016 | [6] 0.031 | dasatinib -0.004 | [7] 0.013 | [8] 0.047 | [9] 0.043 | tipifarnib -0.012 | mubritinib 0.106

SNRPC (UniProt P09234)
inactive: [1] -0.092 | crizotinib 0.038 | [2] -0.043 | [3] -0.024 | duvelisib -0.042 | gandotinib 0.105 | tozasertib -0.003 | [4] -0.072 | doramapimod 0.001 | ispinesib 0.11 | bafetinib -0.002 | [5] 0.044 | nilotinib 0.061 | [6] 0.016 | dasatinib 0.184 | [7] 0.029 | [8] -0.085 | [9] 0.029 | tipifarnib 0.061 | mubritinib -0.009

SMAD4 (UniProt Q13485)
inactive: [1] 0.02 | crizotinib 0.122 | [2] 0.045 | [3] -0.077 | duvelisib 0.067 | gandotinib -0.012 | tozasertib 0.022 | [4] -0.012 | doramapimod -0.038 | ispinesib 0.082 | bafetinib 0.009 | [5] -0.041 | nilotinib -0.002 | [6] 0 | dasatinib 0.011 | [7] -0.024 | [8] 0.029 | [9] -0.052 | tipifarnib -0.038 | mubritinib 0.006

SNRPD1 (UniProt P62314)
inactive: [1] -0.001 | crizotinib 0.014 | [2] 0.014 | [3] -0.005 | duvelisib -0.052 | gandotinib 0.044 | tozasertib -0.023 | [4] -0.137 | doramapimod 0.021 | ispinesib -0.021 | bafetinib 0.058 | [5] -0.176 | nilotinib 0.017 | [6] 0.068 | dasatinib 0.114 | [7] 0.068 | [8] -0.05 | [9] -0.019 | tipifarnib 0.068 | mubritinib -0.003

SMC1B isoform 3 (UniProt Q8NDV3)
inactive: [1] 0.04 | crizotinib 0.016 | [2] 0.019 | [3] -0.062 | duvelisib 0.034 | gandotinib -0.041 | tozasertib 0.054 | [4] -0.011 | doramapimod 0.004 | ispinesib -0.044 | bafetinib -0.126 | [5] 0.011 | nilotinib 0.03 | [6] 0.04 | dasatinib -0.048 | [7] -0.081 | [8] -0.042 | [9] 0.035 | tipifarnib 0 | mubritinib 0.062

Copied from above (4 entries):
SMG7 isoform 4 (UniProt Q92540)
inactive: [1] -0.073 | crizotinib -0.18 | [2] 0.148 | [3] 0.145 | duvelisib -0.024 | gandotinib -0.144 | tozasertib -0.038 | [4] 0.061 | doramapimod 0.199 | ispinesib -0.217 | bafetinib -0.116 | [5] 0.087 | nilotinib -0.005 | [6] -0.008 | dasatinib -0.03 | [7] -0.036 | [8] -0.164 | [9] -0.117 | tipifarnib 0.096

SOCS2 (UniProt O14508)
inactive: [1] 0.083 | crizotinib 0.032 | [2] 0.06 | [3] 0.026 | duvelisib 0.132 | gandotinib 0.044 | tozasertib 0.005 | [4] 0.022 | doramapimod 0.142 | ispinesib 0.065 | bafetinib -0.098 | [5] -0.072 | nilotinib 0.016 | [6] 0.031 | dasatinib -0.004 | [7] 0.013 | [8] 0.047 | [9] 0.043 | tipifarnib -0.012 | mubritinib 0.106

SNRPC (UniProt P09234)
inactive: [1] -0.092 | crizotinib 0.038 | [2] -0.043 | [3] -0.024 | duvelisib -0.042 | gandotinib 0.105 | tozasertib -0.003 | [4] -0.072 | doramapimod 0.001 | ispinesib 0.11 | bafetinib -0.002 | [5] 0.044 | nilotinib 0.061 | [6] 0.016 | dasatinib 0.184 | [7] 0.029 | [8] -0.085 | [9] 0.029 | tipifarnib 0.061 | mubritinib -0.009

SMAD4 (UniProt Q13485)
inactive: [1] 0.02 | crizotinib 0.122 | [2] 0.045 | [3] -0.077 | duvelisib 0.067 | gandotinib -0.012 | tozasertib 0.022 | [4] -0.012 | doramapimod -0.038 | ispinesib 0.082 | bafetinib 0.009 | [5] -0.041 | nilotinib -0.002 | [6] 0 | dasatinib 0.011 | [7] -0.024 | [8] 0.029 | [9] -0.052 | tipifarnib -0.038 | mubritinib 0.006

Later entries

SNRPA (UniProt P09012)
inactive: [1] -0.062 | crizotinib 0.047 | [2] -0.12 | [3] 0.084 | duvelisib -0.046 | gandotinib 0.06 | tozasertib 0 | [4] -0.067 | doramapimod 0.028 | ispinesib 0.036 | bafetinib -0.023 | [5] -0.106 | nilotinib 0.037 | [6] 0.051 | dasatinib 0.188 | [7] 0.088 | [8] -0.129 | [9] -0.039 | tipifarnib 0.067 | mubritinib -0.013

SNRNP200 (UniProt O75643)
inactive: [1] 0.019 | crizotinib 0.019 | [2] -0.027 | [3] 0.089 | duvelisib 0.008 | gandotinib 0.011 | tozasertib 0.021 | [4] -0.012 | doramapimod 0.052 | ispinesib 0.146 | bafetinib 0.087 | [5] 0.002 | nilotinib 0.199 | [6] 0.148 | dasatinib 0.03 | [7] 0.073 | [8] -0.087 | [9] -0.091 | tipifarnib 0 | mubritinib 0.09

SNU13, A0A3B3IUA2
inactive: [1] -0.039 | crizotinib 0 | [2] 0.031 | [3] 0.201 | duvelisib 0.165 | gandotinib -0.187 | tozasertib -0.079 | [4] -0.093 | doramapimod 0.072 | ispinesib -0.251 | bafetinib -0.009 | [5] -0.129 | nilotinib -0.228 | [6] 0.035 | dasatinib 0.084 | [7] -0.16 | [8] -0.071 | [9] 0.132 | tipifarnib 0.056 | mubritinib 0.047

SMC2 (UniProt O95347)
inactive: [1] 0.019 | crizotinib -0.004 | [2] -0.016 | [3] 0.055 | duvelisib 0.01 | gandotinib -0.035 | tozasertib 0.032 | [4] 0.044 | doramapimod -0.012 | ispinesib -0.03 | bafetinib 0.016 | [5] 0 | nilotinib -0.05 | [6] -0.011 | dasatinib -0.1 | [7] 0.053 | [8] -0.02 | [9] -0.004 | tipifarnib -0.044 | mubritinib 0.014

SNCG (UniProt O76070)
inactive: [1] 0 | crizotinib 0.041 | [2] 0.084 | [3] -0.069 | duvelisib 0.071 | gandotinib 0.004 | tozasertib -0.028 | [4] -0.031 | doramapimod -0.014 | ispinesib -0.037 | bafetinib -0.019 | [5] -0.026 | nilotinib 0.01 | [6] 0.038 | dasatinib 0.046 | [7] 0.003 | [8] 0.01 | [9] 0.001 | tipifarnib -0.035 | mubritinib 0.014

SNRPB isoform 3 (UniProt P14678)
inactive: [1] -0.021 | crizotinib 0 | [2] -0.097 | [3] -0.01 | duvelisib -0.024 | gandotinib 0.034 | tozasertib 0.021 | [4] -0.037 | doramapimod 0.099 | ispinesib 0.308 | bafetinib 0.064 | [5] 0.021 | nilotinib 0.058 | [6] 0.047 | dasatinib 0.133 | [7] 0.151 | [8] -0.085 | [9] -0.069 | tipifarnib 0.061 | mubritinib -0.054
